From the supplement of paper PMC6411743
± gives the standard deviation of the averaged measurements. This is a selection; strong and weak results do not stand in their true shares.

Sequences of proteins named here, by UniProt entry; tags and fusion partners are left off. A change or cut given only in a name is not applied to a line headed by its entry.
UniProt Q15121, whole entry: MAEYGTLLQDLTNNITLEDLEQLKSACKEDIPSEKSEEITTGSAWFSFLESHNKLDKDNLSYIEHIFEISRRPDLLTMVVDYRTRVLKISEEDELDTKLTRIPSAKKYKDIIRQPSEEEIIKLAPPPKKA
UniProt Q4G148: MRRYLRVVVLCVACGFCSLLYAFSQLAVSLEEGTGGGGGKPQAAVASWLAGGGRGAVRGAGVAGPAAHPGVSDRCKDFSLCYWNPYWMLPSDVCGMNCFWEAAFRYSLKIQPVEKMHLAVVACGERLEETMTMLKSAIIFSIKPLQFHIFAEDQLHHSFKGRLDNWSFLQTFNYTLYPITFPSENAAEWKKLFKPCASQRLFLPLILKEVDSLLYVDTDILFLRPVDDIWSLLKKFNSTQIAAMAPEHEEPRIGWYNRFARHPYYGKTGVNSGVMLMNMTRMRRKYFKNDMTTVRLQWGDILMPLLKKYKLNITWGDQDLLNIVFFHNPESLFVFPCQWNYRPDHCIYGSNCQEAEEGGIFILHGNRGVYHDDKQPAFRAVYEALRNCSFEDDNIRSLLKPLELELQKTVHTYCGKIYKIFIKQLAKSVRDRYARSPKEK
UniProt Q15545, whole entry: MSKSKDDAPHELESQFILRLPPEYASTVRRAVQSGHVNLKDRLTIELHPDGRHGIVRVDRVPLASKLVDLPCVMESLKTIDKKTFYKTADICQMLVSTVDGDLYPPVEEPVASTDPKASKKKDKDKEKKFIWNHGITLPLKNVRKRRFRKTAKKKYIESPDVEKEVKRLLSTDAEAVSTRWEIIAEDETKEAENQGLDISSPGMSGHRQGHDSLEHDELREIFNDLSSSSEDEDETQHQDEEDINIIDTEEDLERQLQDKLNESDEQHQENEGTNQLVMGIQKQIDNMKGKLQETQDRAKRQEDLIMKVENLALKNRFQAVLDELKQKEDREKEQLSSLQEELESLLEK
UniProt Q3B7J2: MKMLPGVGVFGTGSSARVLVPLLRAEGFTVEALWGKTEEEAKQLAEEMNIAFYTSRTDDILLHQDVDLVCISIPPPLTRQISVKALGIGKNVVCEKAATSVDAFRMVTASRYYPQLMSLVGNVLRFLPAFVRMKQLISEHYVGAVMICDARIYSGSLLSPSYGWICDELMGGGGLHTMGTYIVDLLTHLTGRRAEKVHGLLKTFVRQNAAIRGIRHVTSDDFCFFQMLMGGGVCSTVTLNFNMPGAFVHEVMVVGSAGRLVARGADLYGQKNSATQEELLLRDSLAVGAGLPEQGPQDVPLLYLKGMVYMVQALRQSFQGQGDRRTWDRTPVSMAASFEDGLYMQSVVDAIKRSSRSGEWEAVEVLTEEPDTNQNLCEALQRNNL
UniProt P49591: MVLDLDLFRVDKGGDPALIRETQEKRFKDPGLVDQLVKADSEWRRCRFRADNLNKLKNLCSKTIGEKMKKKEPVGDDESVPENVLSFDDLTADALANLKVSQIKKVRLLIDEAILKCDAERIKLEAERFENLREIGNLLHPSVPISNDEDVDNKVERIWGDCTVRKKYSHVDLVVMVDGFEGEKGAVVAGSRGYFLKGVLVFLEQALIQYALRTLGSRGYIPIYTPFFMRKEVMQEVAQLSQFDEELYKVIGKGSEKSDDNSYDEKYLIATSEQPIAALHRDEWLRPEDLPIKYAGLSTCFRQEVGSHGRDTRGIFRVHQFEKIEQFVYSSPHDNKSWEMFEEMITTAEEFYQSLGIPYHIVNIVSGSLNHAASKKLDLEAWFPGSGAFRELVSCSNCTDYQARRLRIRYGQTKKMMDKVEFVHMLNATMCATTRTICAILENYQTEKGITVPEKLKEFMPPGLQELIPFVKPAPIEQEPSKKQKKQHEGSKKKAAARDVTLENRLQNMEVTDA
UniProt Q3ZCQ8: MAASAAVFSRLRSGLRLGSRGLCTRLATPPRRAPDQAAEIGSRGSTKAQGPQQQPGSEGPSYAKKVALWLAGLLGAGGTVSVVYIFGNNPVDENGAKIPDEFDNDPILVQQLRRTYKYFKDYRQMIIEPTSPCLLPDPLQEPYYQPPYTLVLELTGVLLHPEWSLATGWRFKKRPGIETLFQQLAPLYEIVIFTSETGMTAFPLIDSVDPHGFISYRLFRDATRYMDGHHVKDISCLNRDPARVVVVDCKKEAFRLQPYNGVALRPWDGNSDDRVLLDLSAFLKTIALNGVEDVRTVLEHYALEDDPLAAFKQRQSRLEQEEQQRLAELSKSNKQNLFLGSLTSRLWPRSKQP
UniProt Q15363: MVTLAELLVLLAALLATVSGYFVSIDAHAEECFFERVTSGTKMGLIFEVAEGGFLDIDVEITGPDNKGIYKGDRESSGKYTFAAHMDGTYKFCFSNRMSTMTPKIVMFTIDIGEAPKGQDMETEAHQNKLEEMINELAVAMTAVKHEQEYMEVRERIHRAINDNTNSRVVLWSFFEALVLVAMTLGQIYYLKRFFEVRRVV
UniProt Q15653: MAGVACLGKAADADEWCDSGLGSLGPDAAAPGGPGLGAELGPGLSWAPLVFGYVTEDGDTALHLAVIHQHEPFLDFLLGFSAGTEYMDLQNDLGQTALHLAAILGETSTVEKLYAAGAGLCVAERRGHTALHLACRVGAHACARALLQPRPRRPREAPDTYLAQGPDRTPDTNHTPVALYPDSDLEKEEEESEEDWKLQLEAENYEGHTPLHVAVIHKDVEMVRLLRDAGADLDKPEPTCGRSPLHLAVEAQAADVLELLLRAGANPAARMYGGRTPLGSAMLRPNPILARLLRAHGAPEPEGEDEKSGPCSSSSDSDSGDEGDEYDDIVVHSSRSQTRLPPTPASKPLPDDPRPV
UniProt Q15388, whole entry: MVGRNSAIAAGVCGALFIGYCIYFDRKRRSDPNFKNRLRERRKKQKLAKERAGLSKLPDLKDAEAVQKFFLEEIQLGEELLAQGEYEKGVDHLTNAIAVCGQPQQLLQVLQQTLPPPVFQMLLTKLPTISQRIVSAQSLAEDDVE
UniProt Q15223: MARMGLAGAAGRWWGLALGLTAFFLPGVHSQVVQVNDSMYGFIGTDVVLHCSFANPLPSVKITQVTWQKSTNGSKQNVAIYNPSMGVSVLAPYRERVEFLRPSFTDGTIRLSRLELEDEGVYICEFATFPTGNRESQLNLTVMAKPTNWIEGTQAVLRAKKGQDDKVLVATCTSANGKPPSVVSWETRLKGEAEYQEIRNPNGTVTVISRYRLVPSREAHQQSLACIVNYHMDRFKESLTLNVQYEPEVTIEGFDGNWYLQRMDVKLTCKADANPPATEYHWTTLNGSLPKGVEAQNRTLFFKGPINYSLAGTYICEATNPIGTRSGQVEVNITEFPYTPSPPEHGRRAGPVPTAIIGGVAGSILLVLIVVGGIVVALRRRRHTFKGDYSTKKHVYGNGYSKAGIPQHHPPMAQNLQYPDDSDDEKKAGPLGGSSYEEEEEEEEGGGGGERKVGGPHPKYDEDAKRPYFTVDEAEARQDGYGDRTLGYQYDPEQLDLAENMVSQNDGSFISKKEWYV
UniProt Q16656: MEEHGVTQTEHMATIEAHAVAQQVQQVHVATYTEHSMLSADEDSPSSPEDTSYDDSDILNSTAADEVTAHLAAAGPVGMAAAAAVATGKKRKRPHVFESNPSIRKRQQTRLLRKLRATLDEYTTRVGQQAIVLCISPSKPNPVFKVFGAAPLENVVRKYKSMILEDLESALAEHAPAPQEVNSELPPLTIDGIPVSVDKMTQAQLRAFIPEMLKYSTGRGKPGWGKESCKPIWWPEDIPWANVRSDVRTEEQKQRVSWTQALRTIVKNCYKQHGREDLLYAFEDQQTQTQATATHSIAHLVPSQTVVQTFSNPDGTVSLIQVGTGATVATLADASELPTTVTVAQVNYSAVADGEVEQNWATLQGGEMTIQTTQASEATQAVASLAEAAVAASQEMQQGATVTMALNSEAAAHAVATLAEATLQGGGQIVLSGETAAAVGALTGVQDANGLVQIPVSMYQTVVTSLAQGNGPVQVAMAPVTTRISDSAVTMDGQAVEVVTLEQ
UniProt Q15758: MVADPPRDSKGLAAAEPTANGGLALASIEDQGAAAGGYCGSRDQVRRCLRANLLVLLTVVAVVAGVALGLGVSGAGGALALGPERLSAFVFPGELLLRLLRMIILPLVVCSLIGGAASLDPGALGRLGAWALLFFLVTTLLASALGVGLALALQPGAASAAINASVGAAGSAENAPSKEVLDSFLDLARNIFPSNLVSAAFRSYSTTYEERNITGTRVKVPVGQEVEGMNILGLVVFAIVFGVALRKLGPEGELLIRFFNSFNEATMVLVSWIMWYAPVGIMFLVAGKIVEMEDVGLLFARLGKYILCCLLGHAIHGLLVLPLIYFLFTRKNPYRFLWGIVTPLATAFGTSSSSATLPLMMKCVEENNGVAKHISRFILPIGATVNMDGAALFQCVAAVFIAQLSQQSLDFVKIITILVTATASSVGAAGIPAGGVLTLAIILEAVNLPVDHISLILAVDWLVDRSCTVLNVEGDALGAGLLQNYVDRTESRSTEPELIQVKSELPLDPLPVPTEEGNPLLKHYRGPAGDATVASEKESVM
UniProt Q15438: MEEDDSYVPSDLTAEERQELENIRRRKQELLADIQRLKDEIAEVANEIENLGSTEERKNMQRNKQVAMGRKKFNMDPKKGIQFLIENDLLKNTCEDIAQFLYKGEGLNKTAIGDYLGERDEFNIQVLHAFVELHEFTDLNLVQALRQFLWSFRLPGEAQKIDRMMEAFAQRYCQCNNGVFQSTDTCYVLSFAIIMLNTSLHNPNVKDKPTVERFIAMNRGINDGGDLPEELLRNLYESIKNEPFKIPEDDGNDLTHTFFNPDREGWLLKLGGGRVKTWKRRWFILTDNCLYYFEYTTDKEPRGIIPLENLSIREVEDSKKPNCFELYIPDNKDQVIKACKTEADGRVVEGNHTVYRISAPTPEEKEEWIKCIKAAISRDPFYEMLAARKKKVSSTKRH
UniProt Q4G0F5, whole entry: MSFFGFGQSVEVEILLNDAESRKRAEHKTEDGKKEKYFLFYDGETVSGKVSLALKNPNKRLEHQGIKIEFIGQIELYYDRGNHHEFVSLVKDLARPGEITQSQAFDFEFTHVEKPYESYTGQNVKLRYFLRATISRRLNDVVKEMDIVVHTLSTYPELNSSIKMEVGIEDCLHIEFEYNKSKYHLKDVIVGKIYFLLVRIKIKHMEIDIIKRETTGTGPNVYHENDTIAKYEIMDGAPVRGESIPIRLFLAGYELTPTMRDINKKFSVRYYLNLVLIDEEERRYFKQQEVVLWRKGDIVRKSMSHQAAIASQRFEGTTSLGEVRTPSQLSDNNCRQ
UniProt Q4G176: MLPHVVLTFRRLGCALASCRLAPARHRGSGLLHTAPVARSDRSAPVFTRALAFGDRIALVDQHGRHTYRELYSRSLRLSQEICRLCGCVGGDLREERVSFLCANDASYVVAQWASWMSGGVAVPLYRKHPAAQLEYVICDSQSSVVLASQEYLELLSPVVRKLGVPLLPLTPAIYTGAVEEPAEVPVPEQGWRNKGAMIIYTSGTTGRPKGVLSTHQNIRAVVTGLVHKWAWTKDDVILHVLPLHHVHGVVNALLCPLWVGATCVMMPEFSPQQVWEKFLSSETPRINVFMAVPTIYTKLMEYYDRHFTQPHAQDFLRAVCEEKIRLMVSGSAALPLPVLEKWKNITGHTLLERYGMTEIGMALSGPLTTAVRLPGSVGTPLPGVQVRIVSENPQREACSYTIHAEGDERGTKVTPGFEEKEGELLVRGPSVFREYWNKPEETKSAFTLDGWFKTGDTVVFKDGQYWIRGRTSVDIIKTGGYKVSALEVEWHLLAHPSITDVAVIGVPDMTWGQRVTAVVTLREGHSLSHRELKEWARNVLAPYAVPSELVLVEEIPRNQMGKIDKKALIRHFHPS

Compound: Nc1ncnc2c1ncn2[C@@H]1O[C@H](COP(=O)(O)OP(=O)(O)NP(=O)(O)O)[C@@H](O)[C@H]1O [adenylyl imidodiphosphate]
Assay: NP40-soluble protein abundance relative to vehicle (solubility fold change) (ratio); higher = more soluble protein in presence of AMP-PNP
Summary of the method: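 Crude Jurkat lysate, prepared by Dounce homogenisation, was exposed to eight concentrations from 0.1 to 10 mM for 10 min at room temperature and then 3 min at 37 °C. Solubilisation used 0.8% NP40 with benzonase for 60 min at 4 °C, followed by ultracentrifugation and TMT labelling of the supernatant for LC-MS/MS. After vsn normalisation of intensities, each value is the fold change against the detergent-processed vehicle within each replicate, across three independent experiments.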

Row | Target | NP40-soluble protein abundance (concentration: 1mM) | NP40-soluble protein abundance (concentration: 2mM) | NP40-soluble protein abundance (concentration: 4mM) | NP40-soluble protein abundance (concentration: 6mM) | NP40-soluble protein abundance (concentration: 8mM) | NP40-soluble protein abundance (concentration: 10mM)
1 | UniProt Q15121 and related entries | 1.06 ± 0.051 | 1.1 ± 0.14 | 1.03 ± 0.042 | 0.99 ± 0.058 | 0.941 ± 0.018 | 0.965 ± 0.021
2 | UniProt Q4G148 and related entries | 0.9836 ± 0.0086 | 1.01 ± 0.04 | 1 ± 0.044 | 1.02 ± 0.097 | 1.04 ± 0.058 | 1.06 ± 0.059
3 | TAF7 (UniProt Q15545) | 1.03 ± 0.048 | 1.06 ± 0.015 | 1.03 ± 0.036 | 1.03 ± 0.026 | 1.04 ± 0.066 | 1.06 ± 0.057
4 | GFOD2 (UniProt Q3B7J2) | 0.984 ± 0.011 | 0.916 ± 0.068 | 0.9484 ± 0.0064 | 0.948 ± 0.017 | 0.977 ± 0.018 | 0.921 ± 0.021
5 | Q5TH30 and related entries (UniProt Q9UGV2) | 1.06 ± 0.024 | 1.07 ± 0.056 | 1.05 ± 0.042 | 1.02 ± 0.024 | 1.03 ± 0.016 | 1.01 ± 0.046
6 | UniProt Q5R372 and related entries | 0.97 ± 0.054 | 0.944 ± 0.041 | 0.969 ± 0.029 | 0.917 ± 0.0092 | 0.905 ± 0.014 | 0.905 ± 0.046
7 | Q5T5C7 (UniProt P49591) | 0.988 ± 0.043 | 0.922 ± 0.097 | 0.959 ± 0.025 | 0.945 ± 0.053 | 0.988 ± 0.012 | 0.964 ± 0.043
8 | UniProt Q3ZCQ8 and related entries | 0.987 ± 0.032 | 0.967 ± 0.042 | 0.937 ± 0.043 | 0.958 ± 0.019 | 0.944 ± 0.044 | 0.946 ± 0.067
9 | TMED2 (UniProt Q15363) | 0.927 ± 0.044 | 0.854 ± 0.095 | 0.882 ± 0.025 | 0.972 ± 0.045 | 0.977 ± 0.025 | 0.965 ± 0.065
10 | UniProt Q53HC0 and related entries | 0.976 ± 0.018 | 1.0169 ± 0.00039 | 0.984 ± 0.024 | 0.985 ± 0.03 | 0.9998 ± 0.0068 | 0.976 ± 0.019
11 | UniProt Q15653 and related entries | 1.001 ± 0.0073 | 1.03 ± 0.025 | 1.03 ± 0.015 | 0.982 ± 0.023 | 0.957 ± 0.028 | 0.982 ± 0.024
12 | TOMM20 (UniProt Q15388) | 0.964 ± 0.018 | 1.08 ± 0.11 | 0.973 ± 0.072 | 1.04 ± 0.12 | 1.04 ± 0.062 | 1.03 ± 0.13
13 | UniProt Q15223 | 1.01 ± 0.026 | 1.028 ± 0.0082 | 1.011 ± 0.0089 | 1.01 ± 0.011 | 0.997 ± 0.023 | 1.01 ± 0.028
14 | UniProt Q5T1M5 and related entries | 1.01 ± 0.037 | 1.04 ± 0.073 | 0.979 ± 0.031 | 0.973 ± 0.045 | 0.925 ± 0.025 | 0.982 ± 0.013
15 | UniProt Q16656 and related entries | 1.02 ± 0.083 | 1.02 ± 0.081 | 1.02 ± 0.049 | 0.99 ± 0.016 | 0.985 ± 0.041 | 1.01 ± 0.023
16 | SLC1A5 (UniProt Q15758) | 0.922 ± 0.022 | 0.913 ± 0.037 | 0.925 ± 0.038 | 0.962 ± 0.054 | 0.95 ± 0.091 | 0.902 ± 0.039
17 | UniProt Q15438 and related entries | 1 ± 0.027 | 0.977 ± 0.038 | 1.01 ± 0.03 | 0.957 ± 0.02 | 0.9798 ± 0.0091 | 0.964 ± 0.037
18 | UniProt Q5TCQ9-4 | 0.99 ± 0.012 | 1 ± 0.012 | 1.02 ± 0.031 | 1.002 ± 0.0059 | 1 ± 0.014 | 0.982 ± 0.016
19 | UniProt Q5MIZ7 and related entries | 1.02 ± 0.035 | 1 ± 0.025 | 0.994 ± 0.037 | 0.982 ± 0.062 | 0.973 ± 0.072 | 0.972 ± 0.062
20 | VPS26B (UniProt Q4G0F5) | 0.919 ± 0.063 | 0.825 ± 0.16 | 0.9462 ± 0.006 | 0.906 ± 0.063 | 0.989 ± 0.02 | 0.9152 ± 0.008
21 | SF3A1 (UniProt Q15459) | 1.02 ± 0.022 | 1.05 ± 0.05 | 1.02 ± 0.014 | 1.07 ± 0.031 | 1.07 ± 0.017 | 1.09 ± 0.031
22 | ACSF3 (UniProt Q4G176) | 0.942 ± 0.055 | 0.834 ± 0.084 | 0.949 ± 0.051 | 1.02 ± 0.091 | 1.06 ± 0.11 | 0.956 ± 0.058

In another format: results already given.

| Row | Target | NP40-soluble protein abundance (concentration: 1mM) | NP40-soluble protein abundance (concentration: 2mM) | NP40-soluble protein abundance (concentration: 4mM) | NP40-soluble protein abundance (concentration: 6mM) | NP40-soluble protein abundance (concentration: 8mM) | NP40-soluble protein abundance (concentration: 10mM) |
| --- | --- | --- | --- | --- | --- | --- | --- |
| 4 | GFOD2 (UniProt Q3B7J2) | 0.984 ± 0.011 | 0.916 ± 0.068 | 0.9484 ± 0.0064 | 0.948 ± 0.017 | 0.977 ± 0.018 | 0.921 ± 0.021 |
| 13 | UniProt Q15223 | 1.01 ± 0.026 | 1.028 ± 0.0082 | 1.011 ± 0.0089 | 1.01 ± 0.011 | 0.997 ± 0.023 | 1.01 ± 0.028 |
